Measurements: paper PMC10001230, “A Role for the V0 Sector of the V-ATPase in Neuroexocytosis: Exogenous V0d Blocks Complexin and SNARE Interactions with V0c” (Cells, 2023)
No constants are given. Whether binding was seen depends on the method and setting.

Protein sequences, listed by entry. Tags and fused reporters are not part of them. Lines headed by an entry give the natural chain unless they say otherwise; changes in a name come on top.
UniProt Q5M7T6: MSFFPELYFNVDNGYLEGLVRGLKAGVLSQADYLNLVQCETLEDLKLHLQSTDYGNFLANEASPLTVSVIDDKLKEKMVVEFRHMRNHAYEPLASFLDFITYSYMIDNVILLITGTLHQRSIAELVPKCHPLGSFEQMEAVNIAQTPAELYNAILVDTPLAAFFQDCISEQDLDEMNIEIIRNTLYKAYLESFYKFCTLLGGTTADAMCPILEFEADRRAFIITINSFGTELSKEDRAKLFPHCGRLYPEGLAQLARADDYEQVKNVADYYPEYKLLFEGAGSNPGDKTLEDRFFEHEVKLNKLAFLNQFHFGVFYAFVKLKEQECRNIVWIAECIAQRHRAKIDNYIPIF
UniProt P63081: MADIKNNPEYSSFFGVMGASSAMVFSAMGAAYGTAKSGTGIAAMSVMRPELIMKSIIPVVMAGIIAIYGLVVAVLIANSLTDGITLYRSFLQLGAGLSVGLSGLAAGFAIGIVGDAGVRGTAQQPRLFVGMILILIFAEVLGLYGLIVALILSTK

Target: GST-V0d1 (rat) (UniProt Q5M7T6)
Assay: SPR; GST-V0d1 and GST amine-coupled on consecutive flow cells; V0c (50 nM, with or without 2 µM soluble GST-V0d1), V0c L1.2s or V0c L3.4s injected; 25 °C; GST signal subtracted; both purified

Full-length V0c-L1.2s mutant (V0c with scrambled loop 1.2) (from UniProt P63081)
binding: no binding (tested: 50 nM)
